Results are given in words; binding and its absence hold for the method and conditions named. Some results given as binding are weak or reduced against the parent protein; the word gives no strength.
Target: T1, Pneumolysin, P0C2J9
T1 chain: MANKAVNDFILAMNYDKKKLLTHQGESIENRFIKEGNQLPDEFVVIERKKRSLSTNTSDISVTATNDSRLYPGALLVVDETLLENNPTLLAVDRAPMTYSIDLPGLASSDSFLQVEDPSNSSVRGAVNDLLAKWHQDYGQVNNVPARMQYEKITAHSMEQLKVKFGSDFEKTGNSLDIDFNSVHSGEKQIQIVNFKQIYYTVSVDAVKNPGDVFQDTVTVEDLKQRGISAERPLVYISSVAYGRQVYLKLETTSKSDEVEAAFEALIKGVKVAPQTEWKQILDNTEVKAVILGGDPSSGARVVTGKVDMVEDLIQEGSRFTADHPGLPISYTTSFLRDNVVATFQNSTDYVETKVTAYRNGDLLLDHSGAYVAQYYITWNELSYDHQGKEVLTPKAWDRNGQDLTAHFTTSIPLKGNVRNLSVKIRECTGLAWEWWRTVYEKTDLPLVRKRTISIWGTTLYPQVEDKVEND
Assay: transmission electron microscopy (negative stain); sporadic observation: pneumolysin sprayed at too high a flow rate onto a lipid monolayer, salt residues on the surface, enough lipid then sprayed to form bilayers, covered with glycerol; five days of incubation; 1% uranyl acetate; both purified
Settings: remark: other sources report otherwise

B1: Pneumolysin, P0C2J9 1-471 (protein)
chain: T1 chain
  binding: binds

— paper PMC11502708
